What all share (experiment): pull-down; C-terminally biotinylated peptides on streptavidin agarose; 70 ug HEK293 protein extract; binding buffer 0.05% Tween-20, 10% glycerol, 0.2 M KCl, 20 mM HEPES pH 7.9; 4 °C, 2 h; immunoblotting; only the target purified
In general terms: Immunoblotting shows a protein as a band on a membrane.

For experiment [1], the target named is G-nsP4 peptide (X-…-biotin, X = Gly) (Sindbis virus).
Experiment [2] concerns the target R-nsP4 peptide (X-…-biotin, X = Arg) (Sindbis virus).
Experiment [3] deals with T1, arginylated BiP peptide (X-…-biotin, X = Arg-Glu).
T1 sequence (peptide, C-terminal biotin): REEEDKKEDVG

For experiment [4], the target named is T2, native BiP peptide (X-…-biotin, X = Glu).
T2 sequence (peptide, C-terminal biotin): EEEDKKEDVG

These are yes or no findings as the source states them, for the method shown. In cells and extracts the contact can be indirect. Some entries that bind do so weakly or less than the wild type.

Take “wild-type p62-Flag (full-length p62 expressed in HEK293 cells) (from UniProt Q13501 1-440)”: the binding entry in experiment [1] is given as “no binding”; in experiment [2], “binds”; in experiment [3], “binds”; in experiment [4] it was “no binding”.

Source of the values: PMC6197226.
